Drawing on PubChem BioAssay AID1347426 (Functional Genomics Laboratory (NCATS/FGL), 2020), this text covers median seed-adjusted z-score for 54 sequences.

The campaign covered roughly 31,000 sequences. About 1,400 (4.5%) were called active.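 The calls were made as follows: active = median seed-adjusted z-score above 1 or below -1; inactive = the rest.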 Some of the results follow.

This test in a line: Novel Modifiers of Survival Motor Neuron (SMN) Protein: Gene Identification via Genome-wide siRNA Screen. Particulars: HEK293T SMN2-luciferase reporter, siRNA knockdown, 72 h; actives lie on both sides. From the text:
Spinal muscular atrophy (SMA) is the most common neuromuscular autosomal recessive disorder and one of the leading genetic causes of infant death. SMA results from mutations inducing loss of function or deletion in the survival of motor neuron-1 gene (SMN1), leading to deficiency of the survival motor neuron (SMN) protein. Although a second nearly identical gene, SMN2, is retained in humans, its expression primarily produces an aberrantly spliced isoform that is largely unstable and quickly degraded. We performed a genome-wide RNAi screen using a cell-based reporter assay to identify genes and pathways that modulate SMN protein stability. The screen identified over 200 genes that led to the greatest increase or decrease in luciferase expression.
Using HEK293T cells stably expressing a luciferase reporter that combines the promoter and splicing based cassettes in tandem with the major portion of the native SMN2 cDNA with luciferase, we performed a genome-wide RNAi screen to identify modulators of SMN protein levels. Luciferase is expressed when full-length SMN protein is generated with luminescence signal proportional to SMN protein levels. Our luciferase-based reporter assay was used to screen Ambion Silencer Select Human Druggable Genome siRNA library (10418 genes, 3 unique siRNAs per gene) using lipid-based reverse transfection.
Briefly, 1 pmol of each siRNA was spotted to a well of a 384-well plate (Corning, Corning, NY) and 20 microL of serum-free DMEM containing […] of Lipofectamine RNAiMax (Life Technologies, Carlsbad, CA) was then added to each well. Transfected cells were maintained at 37 degrees C in 5% CO2 for 72 hours, 20 microL of ONE-Glo Reagent (Promega) was added to wells for luciferase quantification. Raw luminescence reads were normalized to Ambion(R) Silencer(R) Negative Control #2 siRNA, then log10 transformed. A robust statistical measure of median absolute deviation (MAD) to standardize siRNA activities from each screen. Common Seed Analysis was used to help prioritize clean hits as opposed to those appearing to arise from seed based off-target effects. Candidate modulators were defined as the genes having a MAD score greater than 1.0 or less than -1.0.
(In a reporter assay the amount or activity of a reporter protein is the signal.)
In the case of GGAGAGACGUGUCAGACGATT against HCCA2, the median seed-adjusted z-score is inactive: 0.862.
Then GACUGACCAGGGCAUCAAATT against CAT, with inactive: 0.
Then GCUCCGAUUUUAUUCGCAUTT against CD27, with inactive: 0.5; and GCAUCGUGCUGAUCGGCAUTT against ITGB2, with inactive: -0.765; and GAAGCUGGAUCGCUACUCATT against KCNH2, with inactive: 0.1.
The figure for GGAUGGUGACUUGAAGGAATT against CHST8 is inactive: 0.341; for GGUGGUCUCUUCAUCCGAATT against GRIA4 it is inactive: 0.
Take GUAAAUCACCGGCUACAAATT against ITGA3: the median seed-adjusted z-score is inactive: 0.
Then CCUCACUCAUGGAACUUAATT against PRCP, with inactive: -0.481.
Then GAAUAUCUACAAAAUCGAATT against NOP58, with inactive: 0.101.
The figure for ACAGGAACAUGGUCUUGCUTT against ZNF789 is inactive: 0.0534; for GGCUGUAAACGAUACUGGATT against MSH6 it is inactive: -0.182.
In the case of GAAAGGCCUUUAGCUUGUATT against ZNF573, the median seed-adjusted z-score was inactive: -0.169.
The figure for CAUCGGUGUUCGAGAAGUATT against RHOF is inactive: 0.0711.
In the case of GGAAAUACUCUUUAAUCCUTT against ACTR6, the median seed-adjusted z-score is inactive: 0.189.
On to GCUCCUUGCUACCAUAGUATT against CCBP2, for which the median seed-adjusted z-score is inactive: -0.0896.
Regarding GAAGGACAAUUCAUCGAUATT against MYH1, the median seed-adjusted z-score is inactive: -0.567.
In the case of GCAGAAGAAAGAACCCGUUTT against DYNC1I1, the median seed-adjusted z-score is inactive: -0.716.
The figure for CGCGCAAGGUUUUAGCUUUTT against FDXR is inactive: 0.6; for ACACUGGAUUGUUCUUUUUTT against COMT it is inactive: -0.0808.
The figure for CCGACAUGCUGGGAGAUUATT against GPR56 is inactive: -0.109.
The figure for GCAACUACACGGCUUCUUUTT against SLC16A13 is inactive: -0.0537; for GCCUUCUACACUUACAUGATT against EVX1 it is active: 1.
For GCAGCUCCCGAUGUCCAAATT against HDHD1A, the median seed-adjusted z-score was inactive: -0.937.
With GAAAGUCAGCUAGAUCCUATT against EPDR1, the median seed-adjusted z-score was inactive: 0.369.
With ACUGUAAAAUAAUCGCUAATT against TLX2, the median seed-adjusted z-score is inactive: -0.182.
As to GACUGAAAAUUUUACUAGATT against RKHD4, the median seed-adjusted z-score is inactive: 0.0683.
Then CCAUGCUCACUGUCUCUUUTT against THBS3, with inactive: 0.429; and GAUCCGCACUGUGGAUAUATT against RAB13, with inactive: -0.599; and CAAUAGUCCUGAGACCGAATT against MYST3, with inactive: -0.49.
Then GUUAAGGGAUUAUAUGGAATT against LDHC, with inactive: 0.537; and GGAGGGACACCUUAAGGAATT against HSPA12A, with inactive: 0.0319; and GAAGGACUCUGCAUAUGAUTT against SLC2A14, with active: -1.09.
In the case of GGAUUCUCACUGGUCGCAATT against SLC20A2, the median seed-adjusted z-score was inactive: -0.0546.
For GGAUCCAUCUGACCACAGATT against RFPL1, the median seed-adjusted z-score was inactive: 0.195.
The figure for AGUCAUAUUUGAAUGUCUATT against SLC6A12 is inactive: -0.708; for CUCAAGUACUUUACUCGGATT against LCN8 it is inactive: 0.112; for GGAACUGCAUGCUGAAUGATT against AXL it is inactive: -0.603.
The figure for UCUCUUCCAUUGCAGCUUATT against DHRS2 is inactive: 0.35; for GAAUGCAUCAUGUAGUAAATT against ZSCAN18 it is inactive: 0.125.
The figure for CCUUCACAAUAGCAGCGGATT against TAP2 is inactive: -0.768.
With CCUCAGUUGGAGUUUCUAATT against TBCEL, the median seed-adjusted z-score was inactive: 0.567.
The figure for GGAUCACGUCUAAACCAGUTT against GABRA1 is inactive: -0.405; for CACUUGAACGGACAUAUCATT against PATZ1 it is inactive: -0.57; for CAAACACCCUAGAUGAUCUTT against S100G it is inactive: -0.809.
Then GAAUCAAGGUGUAAGAACATT against EPHA4, with inactive: -0.0739; and CACCUACUGUGAUGACAGATT against EPAS1, with inactive: -0.166.
The figure for GACCUUUUGUCAUCCCAUUTT against RUNX1T1 is inactive: 0.181; for GAGGAGUACGAGUUCCUGATT against ARHGDIA it is inactive: 0.627.
Take CAUUGGGCCUAGAAAUUCATT against CNKSR1: the median seed-adjusted z-score is inactive: 0.217.
The figure for CCGGUAUUAGAAUCAAAGATT against POLS is inactive: -0.334; for CCGUAAACUUCAUAACAUUTT against DYRK1A it is active: -1.3.
The figure for GGAAUUAGGUAUAAGUUCATT against ADAMTS6 is inactive: 0.023; for GAGUAGAACUUUCCAAAGATT against SRPR it is inactive: 0.242.
